Data published in article PMC6749586, “Design, Synthesis, and Anticancer Effect Studies of Iridium(III) Polypyridyl Complexes against SGC-7901 Cells” (Molecules, 2019).

system: SGC-7901 cells; assay: Intracellular ROS measurement with DCFH-DA; type: cell-based, human; conditions: 1 (4.0 M), 2 (15.0 M), 3 (15.0 M) as printed; no DCFH-DA
Protocol: 2,7-Dichloro-dihydrofluorescein diacetate (DCFH-DA) was used as a fluorescence probe to investigate the changes in intracellular ROS levels. SGC-7901 cells were placed in a 12-well plate at a density of 1.5 × 10^5 per well. After 24 h, the medium in the wells was replaced with a medium containing the corresponding concentration of 1–3, and the cells were incubated for 24 h. Finally, the cell pellets were suspended in PBS and imaged under the ImageXpress Micro XLS system (MD company, US). The DCF fluorescence intensity was calculated by flow cytometry.

| Structure (SMILES) | Fluorescence intensity of cell + complex without dyes |
| --- | --- |
| F[P-](F)(F)(F)(F)F.O=[N+]([O-])c1cc2ccc[n+]3c2c2c1ccc[n+]2[Ir-5]312([c]3ccccc3-c3cccc[n+]31)[c]1ccccc1-c1cccc[n+]12 [Complex 1, [Ir(Hppy)2(NP)]PF6] | 780 |
| F[P-](F)(F)(F)(F)F.Nc1c([N+](=O)[O-])c2cccnc2c2ncccc12.[Ir+3].[c-]1ccccc1-c1ccccn1.[c-]1ccccc1-c1ccccn1 [Complex 2, [Ir(Hppy)2(NAP)]PF6] | 507 |
| F[P-](F)(F)(F)(F)F.Nc1c(N)c2cccnc2c2ncccc12.[Ir+3].[c-]1ccccc1-c1ccccn1.[c-]1ccccc1-c1ccccn1 [Complex 3, [Ir(Hppy)2(DAP)]PF6] | 1120 |
